SMILES strings stand for the structures.

Consider `CN1CCCC1c1cccnc1.O=C(O)c1cccc(O)c1` (centres unmarked) [Nicotine m-salicylate, nicotine meta-salicylate], for which, where the note is “both entities”, the “mass balance of nicotine and m-salicylic acid (coated vs. emitted+residual)” value was “about 100%”. The “average nicotine emitted dose” value (foils coated with 200 μg nicotine, 28.3 LPM) is given as 99.5 % of coated dose.

The values above are taken from patent US9724341B2 (priority 2013, dated 2017).
